Assay results: PMC9561960
No constants are given. Whether binding was seen depends on the method and setting. In cells and extracts the contact can be indirect. Some binding calls cover weakened binding; strength is not graded here.

Amino acid sequences for entries named in this document (tags omitted).
UniProt P0DTD2: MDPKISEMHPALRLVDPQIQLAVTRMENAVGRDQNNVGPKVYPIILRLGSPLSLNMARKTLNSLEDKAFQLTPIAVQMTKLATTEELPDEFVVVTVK
UniProt Q07820: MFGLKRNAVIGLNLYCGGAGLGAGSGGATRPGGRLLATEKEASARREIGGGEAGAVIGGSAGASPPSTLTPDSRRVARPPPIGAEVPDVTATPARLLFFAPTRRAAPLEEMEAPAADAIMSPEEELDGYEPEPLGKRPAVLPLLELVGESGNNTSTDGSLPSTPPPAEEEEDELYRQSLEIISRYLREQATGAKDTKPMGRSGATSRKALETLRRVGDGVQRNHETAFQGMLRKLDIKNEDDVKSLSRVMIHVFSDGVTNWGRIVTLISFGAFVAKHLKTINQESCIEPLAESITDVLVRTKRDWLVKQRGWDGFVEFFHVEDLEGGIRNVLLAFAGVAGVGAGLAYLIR

Molecular target: SARS-CoV-2 ORF9b containing a Strep-II tag (SARS-CoV-2) (UniProt P0DTD2)
Test: co-IP

myeloid cell leukemia-1 (MCL1) (from UniProt Q07820 1-350)
binding: binds
